For 1 molecule, binding results are on record in publication PMC7242711, “An integrated approach to unravel a crucial structural property required for the function of the insect steroidogenic Halloween protein Noppera-bo” (The Journal of Biological Chemistry, 2020).

No constants are given. Whether binding was seen depends on the method and setting. Some binding calls cover weakened binding; strength is not graded here.

The target of this experiment is Drosophila melanogaster Noppera-bo (DmNobo), wild type (D. melanogaster) (UniProt Q7JYX0). Nature of the experiment: crystal structure; DmNobo crystallised at 20 °C; DmNobo I crystals from 27.5% (w/v) PEG 3350, 100 mM MES-NaOH pH 5.4; DmNobo II crystals from 42.5% (v/v) PPG400, 100 mM Bis-Tris pH 6.4; apo form and soaks with EST and/or GSH; molecular replacement; both purified.

B1: Drosophila melanogaster Noppera-bo (DmNobo), wild type (enzyme, UniProt Q7JYX0 1-232)
chain: MNHKVMSQPKPILYYDERSPPVRSCLMLIKLLDIDVELRFVNLFKGEQFQKDFLALNPQHSVPTLVHGDLVLTDSHAILIHLAEKFDEGGSLWPQEHAERMKVLNLLLFECSFLFRRDSDFMSATVRQGFANVDVAHHERKLTEAYIIMERYLENSDFMAGPQLTLADLSIVTTLSTVNLMFPLSQFPRLRRWFTAMQQLDAYEANCSGLEKLRQTMESVGSFQFPSSSAVVTEKVE
Turning to B1, the binding entry is “binds”.
